Source: patent publication US20250136686A1 (GUANGDONG KEGUANDA PHARMACEUTICAL TECHNOLOGY, published 2025)
These are yes or no findings as the source states them, for the method shown. Some results given as binding are weak or reduced against the parent protein; the word gives no strength.

Assays:
CD101 (human) [1] = target: T1, CD101 (human) (UniProt Q93033); assay: FACS, culture supernatant on 293F-CD101 against 293F cells
T1 sequence (looked up): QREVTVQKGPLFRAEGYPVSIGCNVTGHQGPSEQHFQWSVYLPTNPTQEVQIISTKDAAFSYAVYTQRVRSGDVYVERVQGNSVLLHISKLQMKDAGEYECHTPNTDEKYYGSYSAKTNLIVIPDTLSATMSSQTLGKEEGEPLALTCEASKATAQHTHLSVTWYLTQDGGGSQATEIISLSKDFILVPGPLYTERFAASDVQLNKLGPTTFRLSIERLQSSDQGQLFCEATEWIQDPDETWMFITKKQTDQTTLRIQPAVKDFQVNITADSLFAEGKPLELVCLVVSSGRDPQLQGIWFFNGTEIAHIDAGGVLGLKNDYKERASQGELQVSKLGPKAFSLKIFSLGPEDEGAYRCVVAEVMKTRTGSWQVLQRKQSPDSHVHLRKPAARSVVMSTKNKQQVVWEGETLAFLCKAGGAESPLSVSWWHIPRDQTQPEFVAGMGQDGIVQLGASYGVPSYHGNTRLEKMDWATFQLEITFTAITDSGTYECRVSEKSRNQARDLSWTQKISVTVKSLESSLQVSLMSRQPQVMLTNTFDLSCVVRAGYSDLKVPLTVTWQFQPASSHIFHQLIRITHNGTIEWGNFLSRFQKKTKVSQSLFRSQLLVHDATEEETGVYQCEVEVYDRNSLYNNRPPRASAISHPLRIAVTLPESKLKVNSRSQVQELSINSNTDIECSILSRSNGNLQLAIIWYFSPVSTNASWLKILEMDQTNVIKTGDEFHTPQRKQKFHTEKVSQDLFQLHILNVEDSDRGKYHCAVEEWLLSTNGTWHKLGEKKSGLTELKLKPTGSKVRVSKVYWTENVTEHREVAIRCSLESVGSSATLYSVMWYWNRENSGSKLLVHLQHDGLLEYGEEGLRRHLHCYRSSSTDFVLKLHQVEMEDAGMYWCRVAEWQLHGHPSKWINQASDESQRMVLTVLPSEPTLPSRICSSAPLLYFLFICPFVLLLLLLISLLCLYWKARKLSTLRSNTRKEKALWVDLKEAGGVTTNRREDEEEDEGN

CD101 (human) [2] = target: T1, CD101 (human); assay: FACS, purified chimeric antibody on cells expressing CD101

binding (CD101 (human) [1]): binds | binding (CD101 (human) [2]): binds
B1: chimeric antibody CA2 (antibody, V domains shown)
VH: EVQLQQSGAELVRPGTSVKVSCKASGYAFTHYFIEWVKQRPGQGLEWIGVITPGSGGTNYNEKFKGKATLTADKSSSTAYMQLSSLTSEDSAVYFCARGNHGNYWGQGTTLTVSS
VL: DIQLTQPPASLSVSVGETVTITCRASENIYSNLAWYQQKQGKSPQLLVYAATNLADGVPSRFSGSGSGTQYSLKINSLQSEDFGSYYCQHFWGNPWTFGGGTKLEIK
